In PMC10890932:
No constants are given. Whether binding was seen depends on the method and setting. Binding seen in cells or lysates may run through a third protein. These calls come from enrichment with a bait or labelling near it, and not all partners need be listed. Sequences can lack the tags named with a protein.

Amino acid sequences for entries named in this document (tags omitted).
UniProt P09874: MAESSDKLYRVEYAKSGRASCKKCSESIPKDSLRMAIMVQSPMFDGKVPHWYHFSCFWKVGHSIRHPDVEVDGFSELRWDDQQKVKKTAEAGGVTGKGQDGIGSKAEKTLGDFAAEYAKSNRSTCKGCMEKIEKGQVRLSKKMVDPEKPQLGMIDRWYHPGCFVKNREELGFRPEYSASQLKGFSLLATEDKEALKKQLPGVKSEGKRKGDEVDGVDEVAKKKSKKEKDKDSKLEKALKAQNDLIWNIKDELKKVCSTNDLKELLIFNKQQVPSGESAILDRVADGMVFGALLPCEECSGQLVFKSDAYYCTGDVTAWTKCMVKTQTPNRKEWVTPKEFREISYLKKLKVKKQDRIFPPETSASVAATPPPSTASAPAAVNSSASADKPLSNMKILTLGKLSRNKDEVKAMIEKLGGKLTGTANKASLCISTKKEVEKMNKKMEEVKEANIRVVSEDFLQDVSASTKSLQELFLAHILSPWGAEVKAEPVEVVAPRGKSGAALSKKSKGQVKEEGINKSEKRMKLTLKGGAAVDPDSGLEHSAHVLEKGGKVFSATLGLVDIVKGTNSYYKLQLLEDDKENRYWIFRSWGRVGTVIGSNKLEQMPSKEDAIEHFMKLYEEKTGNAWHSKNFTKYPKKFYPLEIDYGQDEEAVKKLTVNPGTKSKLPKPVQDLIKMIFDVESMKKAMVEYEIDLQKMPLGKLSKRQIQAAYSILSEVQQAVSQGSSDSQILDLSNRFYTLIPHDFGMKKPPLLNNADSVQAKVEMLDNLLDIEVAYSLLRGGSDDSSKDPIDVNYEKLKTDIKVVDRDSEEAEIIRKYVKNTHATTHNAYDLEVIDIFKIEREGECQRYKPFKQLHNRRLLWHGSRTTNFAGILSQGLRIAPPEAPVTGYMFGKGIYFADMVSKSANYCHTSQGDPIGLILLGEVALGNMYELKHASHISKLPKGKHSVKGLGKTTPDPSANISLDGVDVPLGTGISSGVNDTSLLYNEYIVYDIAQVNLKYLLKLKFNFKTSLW

Target: T1, TKT-Flag (human) (UniProt P29401)
T1 sequence: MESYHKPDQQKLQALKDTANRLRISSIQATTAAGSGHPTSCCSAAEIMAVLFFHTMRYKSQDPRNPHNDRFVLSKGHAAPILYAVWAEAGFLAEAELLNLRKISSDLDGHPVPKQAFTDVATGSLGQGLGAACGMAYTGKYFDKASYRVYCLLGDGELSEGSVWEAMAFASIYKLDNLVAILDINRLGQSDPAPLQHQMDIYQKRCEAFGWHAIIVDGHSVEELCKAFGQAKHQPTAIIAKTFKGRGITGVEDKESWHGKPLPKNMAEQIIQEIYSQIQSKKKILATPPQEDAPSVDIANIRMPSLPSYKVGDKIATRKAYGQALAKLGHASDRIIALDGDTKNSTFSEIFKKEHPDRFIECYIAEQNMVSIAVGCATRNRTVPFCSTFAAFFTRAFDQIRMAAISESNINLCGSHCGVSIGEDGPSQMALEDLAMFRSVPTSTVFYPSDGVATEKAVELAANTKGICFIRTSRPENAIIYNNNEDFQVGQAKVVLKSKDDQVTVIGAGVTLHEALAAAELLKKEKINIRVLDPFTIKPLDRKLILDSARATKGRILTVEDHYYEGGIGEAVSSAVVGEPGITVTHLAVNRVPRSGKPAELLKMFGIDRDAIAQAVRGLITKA
Assay: affinity purification with mass spectrometry; Hep3B cells stably expressing TKT-Flag; immunoprecipitation with anti-Flag or anti-IgG antibody; SDS-PAGE, Coomassie staining, bands of interest analysed by LC-MS/MS

binding: binds
Substance: Poly (ADP-ribose) polymerase 1 (PARP1), endogenous in Hep3B (from UniProt P09874 1-1014) (enzyme)
